Laboratory results: article PMC8628632
No constants are given. Whether binding was seen depends on the method and setting. In cells and extracts the contact can be indirect. Some entries that bind do so weakly or less than the wild type.

By UniProt entry, the sequences of proteins in these tests, tags left out. Where a name states a change or a piece, a line headed by the entry shows the natural chain unless it says otherwise.
UniProt P56696: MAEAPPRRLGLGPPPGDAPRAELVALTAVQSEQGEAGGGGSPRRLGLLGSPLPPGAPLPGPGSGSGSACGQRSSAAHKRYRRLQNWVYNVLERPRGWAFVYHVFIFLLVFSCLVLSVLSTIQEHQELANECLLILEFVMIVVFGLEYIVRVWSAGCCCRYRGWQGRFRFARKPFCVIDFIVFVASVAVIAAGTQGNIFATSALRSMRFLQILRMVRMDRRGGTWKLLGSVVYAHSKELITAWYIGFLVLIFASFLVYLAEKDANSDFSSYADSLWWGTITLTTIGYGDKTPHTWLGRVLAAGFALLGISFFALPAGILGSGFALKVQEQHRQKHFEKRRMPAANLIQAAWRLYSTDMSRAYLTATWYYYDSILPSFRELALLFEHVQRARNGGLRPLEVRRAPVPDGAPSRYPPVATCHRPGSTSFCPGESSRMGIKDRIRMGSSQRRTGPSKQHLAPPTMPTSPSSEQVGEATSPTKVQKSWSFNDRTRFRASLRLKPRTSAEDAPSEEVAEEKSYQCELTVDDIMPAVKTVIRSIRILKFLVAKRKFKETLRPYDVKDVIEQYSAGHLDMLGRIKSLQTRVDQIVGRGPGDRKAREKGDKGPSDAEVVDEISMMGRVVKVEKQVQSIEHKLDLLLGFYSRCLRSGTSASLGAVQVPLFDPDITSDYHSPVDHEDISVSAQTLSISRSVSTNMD

molecular target: RFP-tagged Kv7.4^WT (human Kv7.4, encoded by KCNQ4) (human) (UniProt P56696); assay: co-IP; RFP-Kv7.4^WT captured on anti-RFP beads (RFP-selector) from lysates of HEK293T cells co-expressing a GFP-tagged Kv7.4 construct; lysis in 150 mM NaCl, 20 mM DDM, 1 mM EDTA, 1 mM DTT, 20 mM HEPES pH 7.5; 30 min at 4°C; washed with 2 mM DDM buffer; binding read as green fluorescence of the beads by microscopy; flow-through checked with GFP-selector

Row | binding | Substance
1 | binds | GFP-tagged Kv7.4^G285S (from UniProt P56696 1-695)
2 | binds | GFP-tagged Kv7.4^P291L (from UniProt P56696 1-695)
3 | binds | RFP-tagged Kv7.4^WT (human Kv7.4, encoded by KCNQ4) (from UniProt P56696 1-695)
